In article doi:10.1101/2023.09.28.559955:
Numbering of substitutions follows the chain as printed. Names and notes keep the numbering of the source. These are yes or no findings as the source states them, for the method shown. In cells and extracts the contact can be indirect. Some binding calls cover weakened binding; strength is not graded here. Sequences can lack the tags named with a protein. Blank lines part the entries; values can stand above or below the molecule they belong to.

Protein sequences, listed by entry. Tags and fused reporters are not part of them. Lines headed by an entry give the natural chain unless they say otherwise; changes in a name come on top.
UniProt P22147: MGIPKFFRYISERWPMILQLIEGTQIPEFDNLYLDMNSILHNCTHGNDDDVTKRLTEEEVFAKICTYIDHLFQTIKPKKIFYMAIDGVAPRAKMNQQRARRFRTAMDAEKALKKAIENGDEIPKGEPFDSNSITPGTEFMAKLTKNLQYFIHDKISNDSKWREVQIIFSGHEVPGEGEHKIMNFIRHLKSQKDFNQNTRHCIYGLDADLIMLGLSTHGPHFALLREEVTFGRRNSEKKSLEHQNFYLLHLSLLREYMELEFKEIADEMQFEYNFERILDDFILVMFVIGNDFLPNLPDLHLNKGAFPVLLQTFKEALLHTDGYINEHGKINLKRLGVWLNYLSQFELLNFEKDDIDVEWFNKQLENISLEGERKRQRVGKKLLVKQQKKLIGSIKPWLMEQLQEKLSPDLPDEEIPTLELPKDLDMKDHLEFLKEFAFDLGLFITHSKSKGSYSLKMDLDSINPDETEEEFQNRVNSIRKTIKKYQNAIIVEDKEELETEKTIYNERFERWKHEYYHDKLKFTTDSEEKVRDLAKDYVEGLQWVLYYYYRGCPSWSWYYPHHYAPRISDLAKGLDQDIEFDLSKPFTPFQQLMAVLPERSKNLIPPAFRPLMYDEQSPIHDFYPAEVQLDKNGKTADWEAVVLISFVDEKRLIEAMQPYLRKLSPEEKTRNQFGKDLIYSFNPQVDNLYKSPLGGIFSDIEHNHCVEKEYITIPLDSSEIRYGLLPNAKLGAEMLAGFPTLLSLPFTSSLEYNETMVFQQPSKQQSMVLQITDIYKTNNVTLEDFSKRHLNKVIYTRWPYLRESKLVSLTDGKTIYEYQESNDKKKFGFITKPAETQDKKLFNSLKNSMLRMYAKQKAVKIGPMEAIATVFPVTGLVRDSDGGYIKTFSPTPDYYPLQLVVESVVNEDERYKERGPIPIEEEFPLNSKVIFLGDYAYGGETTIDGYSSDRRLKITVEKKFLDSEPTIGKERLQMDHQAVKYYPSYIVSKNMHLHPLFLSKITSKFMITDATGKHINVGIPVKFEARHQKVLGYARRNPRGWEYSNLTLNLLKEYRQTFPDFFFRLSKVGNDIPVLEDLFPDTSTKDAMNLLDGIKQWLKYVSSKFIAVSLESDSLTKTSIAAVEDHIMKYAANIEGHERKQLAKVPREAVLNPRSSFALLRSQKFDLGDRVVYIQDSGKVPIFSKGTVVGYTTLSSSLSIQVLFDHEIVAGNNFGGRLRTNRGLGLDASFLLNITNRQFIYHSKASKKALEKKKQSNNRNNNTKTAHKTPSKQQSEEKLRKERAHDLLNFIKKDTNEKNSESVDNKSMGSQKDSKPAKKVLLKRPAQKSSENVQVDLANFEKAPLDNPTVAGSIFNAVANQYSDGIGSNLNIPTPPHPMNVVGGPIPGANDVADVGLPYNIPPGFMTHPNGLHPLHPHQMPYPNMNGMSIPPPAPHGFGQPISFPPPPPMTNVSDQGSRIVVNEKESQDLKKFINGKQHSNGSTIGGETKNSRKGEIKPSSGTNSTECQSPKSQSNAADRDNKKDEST
UniProt P38873: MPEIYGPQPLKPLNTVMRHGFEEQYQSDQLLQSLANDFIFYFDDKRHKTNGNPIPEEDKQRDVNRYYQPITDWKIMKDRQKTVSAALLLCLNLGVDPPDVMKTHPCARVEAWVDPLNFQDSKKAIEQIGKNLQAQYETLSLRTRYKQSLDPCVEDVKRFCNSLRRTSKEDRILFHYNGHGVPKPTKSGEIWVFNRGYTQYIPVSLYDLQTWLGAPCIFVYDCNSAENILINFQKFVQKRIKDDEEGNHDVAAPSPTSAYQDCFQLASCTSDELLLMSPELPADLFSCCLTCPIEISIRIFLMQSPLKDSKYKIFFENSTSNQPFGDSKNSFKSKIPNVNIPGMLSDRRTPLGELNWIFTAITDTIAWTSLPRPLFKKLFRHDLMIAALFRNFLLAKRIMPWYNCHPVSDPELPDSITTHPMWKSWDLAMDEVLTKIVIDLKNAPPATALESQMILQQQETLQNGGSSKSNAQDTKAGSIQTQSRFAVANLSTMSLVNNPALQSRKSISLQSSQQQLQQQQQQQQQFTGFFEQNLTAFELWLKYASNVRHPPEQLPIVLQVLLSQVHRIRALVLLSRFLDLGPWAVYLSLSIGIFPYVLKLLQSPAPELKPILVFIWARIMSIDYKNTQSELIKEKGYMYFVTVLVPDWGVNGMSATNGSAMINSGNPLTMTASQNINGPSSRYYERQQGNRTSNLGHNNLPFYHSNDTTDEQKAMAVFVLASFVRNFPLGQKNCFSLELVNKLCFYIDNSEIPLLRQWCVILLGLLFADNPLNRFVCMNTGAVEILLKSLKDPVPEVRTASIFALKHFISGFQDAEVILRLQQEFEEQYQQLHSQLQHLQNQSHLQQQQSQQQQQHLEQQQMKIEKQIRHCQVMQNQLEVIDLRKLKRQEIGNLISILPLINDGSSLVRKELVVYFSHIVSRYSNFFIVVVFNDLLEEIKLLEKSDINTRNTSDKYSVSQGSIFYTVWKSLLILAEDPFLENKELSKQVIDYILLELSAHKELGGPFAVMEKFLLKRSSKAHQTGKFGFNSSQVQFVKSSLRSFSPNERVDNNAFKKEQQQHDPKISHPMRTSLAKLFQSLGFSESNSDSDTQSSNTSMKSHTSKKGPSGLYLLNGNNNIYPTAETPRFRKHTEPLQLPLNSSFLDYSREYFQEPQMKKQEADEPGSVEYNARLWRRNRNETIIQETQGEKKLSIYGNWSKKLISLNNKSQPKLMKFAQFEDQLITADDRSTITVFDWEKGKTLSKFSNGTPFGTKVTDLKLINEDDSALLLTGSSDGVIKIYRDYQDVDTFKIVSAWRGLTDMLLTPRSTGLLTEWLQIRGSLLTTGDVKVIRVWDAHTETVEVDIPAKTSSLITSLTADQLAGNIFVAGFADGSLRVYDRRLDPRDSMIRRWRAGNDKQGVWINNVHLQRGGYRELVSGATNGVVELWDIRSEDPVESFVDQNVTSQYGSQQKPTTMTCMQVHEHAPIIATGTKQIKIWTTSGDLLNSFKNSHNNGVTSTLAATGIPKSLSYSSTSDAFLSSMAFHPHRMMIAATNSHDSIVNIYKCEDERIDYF

Legend:
Assay in all cases: co-IP; anti-Flag antibody (M2) on Dynabeads Protein G, yeast lysates, 2 h at 4°C; 50 mM HEPES pH 7.5, 150 mM NaCl, 1 mM EDTA, NP-40; cells grown in YPL or switched to SL with or without methionine; WT or xrn1Δ cells; RNase A (25 ng/μL) or NMPs added to the lysate where indicated; HA blot
[1] = target: T1, Gtr1-Flag (S. cerevisiae) (UniProt Q00582)
T1 sequence: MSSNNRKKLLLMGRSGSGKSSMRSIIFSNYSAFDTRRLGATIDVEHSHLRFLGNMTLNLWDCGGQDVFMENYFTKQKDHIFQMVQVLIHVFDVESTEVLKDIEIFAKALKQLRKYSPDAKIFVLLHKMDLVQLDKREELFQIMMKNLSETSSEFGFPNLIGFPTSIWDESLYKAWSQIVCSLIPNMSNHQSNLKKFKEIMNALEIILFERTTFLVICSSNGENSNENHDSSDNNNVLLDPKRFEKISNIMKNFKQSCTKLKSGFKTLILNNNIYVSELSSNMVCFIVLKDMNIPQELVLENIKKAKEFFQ

[2] = target: Flag-tagged Xrn1 (S. cerevisiae) (UniProt P22147)
[3] = target: WT flag-tagged Xrn1 expressed ectopically from a plasmid using the endogenous Xrn1 promoter (S. cerevisiae) (UniProt P22147)
[4] = target: catalytically dead (D208A) flag-tagged Xrn1 expressed ectopically from a plasmid (S. cerevisiae) (UniProt P22147)

binding [1]: binds
Molecule: Kog1-HA (from UniProt P38873 1-1557)

binding [2]: binds | binding [3]: binds | binding [4]: binds
B1: HA-tagged Gtr1 (protein, UniProt Q00582 1-310)
chain: T1 sequence

binding [2]: binds
B2: GDP-locked Gtr1 (S20L) (protein, UniProt Q00582 1-310)
chain: T1 sequence with S20L

binding [2]: binds | binding [3]: binds | binding [4]: binds
B3: HA-tagged Npr2 (protein, UniProt P39923 1-615)
chain: MLSYFQGFVPIHTIFYSVFHPTEGSKIKYEFPPNNLKNHGINFNTFKNYIIPKPILCHKLITFKYGTYRIVCYPVTINSPIYARNFFSFNFVFVFPYDCETSPYEPAITRLGKMFKVLEEQNQLLSKSERDPVFFDLKVLENSTTTPSTAGPSSTPNPSSNTTPTHPTSEKDTKDMRSSRYSDLIKDLGLPQSAFSIQDLLMRIFQDLNNYSECLIPIDEGNAVDIKIFPLLRPPTTCVSLEDVPLSSVNLKKIIDVNWDPTMMSIVPYIDGLNSIAKISKLSNSDPGLVIECIRHLIYYKCVTLSDIFQFSNIYAPSSLIRNFLTDPLMASDCQSYVTFPEVSKISNLPLNKSLGSGDQDSPSFSVRRKSKSSSIPSNPDSRTTSFSSTSRVSQNSSLNSSFSSIYKDWRQSQTSCSSSNIHVINNRNRFLPTRSCLFDLYRSLSQGQTLKTWYESKYMILKENNIDIRRFITFGLEKRIIYRCYSFPVMINAGSREPKEMTPIITKDLVNNDKLLEKRNHNHLLSATGSRNTAQSGNLKPERPSKVSFEMQRVSSLATGKSTMPKLSDEEEGILEESIRNAETFDKICVLLSKPKLEVESYLNELGEFKVINS
